Single values of this data set are uncertain.
B1: human tRNA-Pro; a variant is named by its letters at N, in order (parent)
chain: GGCTCGTTGGTCTAGNGGTATGATTCTCGCTTAGGGTGCGAGAGGTCCCGGGTTCNNATCCCGGACGAGCCC

Legend:
[1] = variants of: B1; assay: tRNA Pol-III promoter activity, log2 (circRNA frequency / plasmid DNA frequency) (log2 ratio); higher = stronger promoter activity; settings: HEK293T; construct: no Pol-II promoter ((-)CMV library)
[2] = variants of: B1; assay: tRNA 3' processing efficiency (processed reads / all reads, maximum-likelihood estimate) (fraction); higher = more efficient 3' processing; settings: HEK293T; construct: no Pol-II promoter ((-)CMV library)
[3] = variants of: B1; assay: tRNA 5' processing efficiency (processed reads / all reads, maximum-likelihood estimate) (fraction); higher = more efficient 5' processing; settings: HEK293T; construct: CMV Pol-II promoter ((+)CMV library, decapped)

Variant | tRNA Pol-III promoter activity (log2) [1] | tRNA 3' processing efficiency [2] | tRNA 5' processing efficiency [3]
GAA T19C T59C | 1.79 | 0.29 | 
GAG T8C | 2.46 | 0.32 | 
GAA G9A G15T A58C | 3.84 | 0.14 | 
GAA A58T T59C | 2.73 | 0.4 | 
GTA T19A A58G T59G | 6.62 | 0.33 | 
GAA T19C T53A | 1.73 | 0.41 | 
GAA G34A | 2.73 | 0.25 | 
AAC T19A | 3.9 | 0.4 | 
TAT A14G | 3.73 | 0.24 | 
TAA A58C | -0.434 | 0.57 | 
ATA G9A | 3.22 | 0.64 | 
CAG G9A | 4.03 | 0.5 | 
TAG T8C | 3.14 | 0.32 | 
TAT A58C | 2.33 | 0.25 | 
TCG T8C T53A T54G A58T | 4.62 | 0.67 | 
GAA A14G G18A T59G | 4.53 | 0.5 | 
GTC G17T | 2.75 | 0.57 | 0.25
CAA T8C A58G | 7.03 | 0.75 | 
GAA T8C A14T T59C | 2.8 | 0.4 | 
TCA A58C | 4.12 | 0.3 | 
GAA T19C T54C A58G | 4.34 | 0.62 | 
GGA C55T A58G T59G | 10.5 | 0.11 | 
GAA T8A A14T | 0.127 | 0.75 | 0.33

Variant | tRNA Pol-III promoter activity (log2) [1] | tRNA 3' processing efficiency [2] | tRNA 5' processing efficiency [3]
CTA T8G | 4.36 | 0.4 | 
GAT T8G T19G | 2.12 | 0.5 | 
TTA T19G A58T | 4.45 | 0.5 | 
GAA T8G T19C A58G | 4.72 | 0.67 | 
GAA T19A T59G | 1.04 | 0.43 | 
CGA T54G | 3.34 | 0.25 | 
GAA A20T A58T T59C | 2.25 | 0.2 | 
GAT G15T A58T | 3.05 | 0.5 | 
GAA A20T A58C T59C | 6.11 | 0.11 | 
GAC G9T G15C G18T A20T C55A A58C | 4.68 | 0.6 | 
GGA T19A T53G | 4.06 | 0.29 | 
TCA A14C T19C | 7.94 | 0.13 | 
AAA A14G T53A | 2.93 | 0.4 | 
GAA A14T A20T A58G T59C | 4.94 | 0.62 | 
GAC A14G T19G | 6.03 | 0.12 | 
GGA A14C T19A A58G | 5.51 | 0.33 | 
GGC A20G | 3.36 | 0.25 | 
GAG T8G G9T | 3.26 | 0.4 | 
GGT A20T | 4.57 | 0.71 | 
GTA T8G G15C A58G | 6.1 | 0.11 | 
GAA G18A T59A | 0.447 | 0.5 | 
GAT A14C G15C | 4.27 | 0.14 | 
TGA G15A T54A | 3.94 | 0.2 | 

Variant | tRNA Pol-III promoter activity (log2) [1] | tRNA 3' processing efficiency [2] | tRNA 5' processing efficiency [3]
GGA A14T C55G | 2.74 | 0.14 | 
GAA T59G | 2.01 | 0.38 | 0.29
CTA A20G | 3.18 | 0.23 | 
TAT T53A | 2.79 | 0.2 | 
GAG T19C A58G | 5.53 | 0.33 | 
GAT G15T G17A | 3.88 | 0.67 | 
CAA A14G A58C | 6.38 | 0.92 | 
GTG G9A A20T A58T | 6.1 | 0.67 | 
GTA T19A A20T | 7.08 | 0.28 | 
TAA T53C | 0.578 | 0.4 | 
GAT A14C T59C | 4.84 | 0.27 | 
GAA G15C A20C | 0.556 | 0.71 | 
GTA G17A T53A A58G | 4.93 | 0.8 | 
TAA A20C T59G | 4.25 | 0.4 | 
GAT A14T T59A | 2.93 | 0.25 | 
GAA G9A | 0.199 | 0.94 | 0.31
GCA A20T | 0.242 | 0.41 | 
GGA A14C G15T C55T | 7.62 | 0.5 | 
GTA G17A A58G | 2.41 | 0.43 | 
TAA T59C | 3.34 | 0.65 | 
AAA T19A A58G | 3.25 | 0.4 | 
CTG T53G | 6.36 | 0.2 | 
TGT A14T | 7.25 | 0.1 | 

Variant | tRNA Pol-III promoter activity (log2) [1] | tRNA 3' processing efficiency [2] | tRNA 5' processing efficiency [3]
CAA G15T A20T C28T A58G | 5.67 | 0.1 | 
GAA A14C A20T A58G | 3.09 | 0.4 | 
GAA G17C T19A A58T | 3.48 | 0.5 | 
GTA T8C T19G | 3.3 | 0.33 | 
GAA A20T C55T | -0.55 | 0.48 | 
ATA T19A | 3.87 | 0.19 | 
CAG A14G T59C | 7.94 | 0.03 | 
GAT G17C | -0.749 | 0.33 | 
GTA G9A | 1.71 | 0.17 | 0.2
TTA A20G | 3.43 | 0.24 | 
GGA G15C T19A | 6.06 | 0.27 | 
GAA A14C G18A C55T | 3.71 | 0.17 | 
CTA A58G | 4.53 | 0.14 | 
GTA G17T A20G | 3.46 | 0.6 | 
GAT A14C G18A | 3.36 | 0.2 | 
ATA G15T A58G | 4.36 | 0.25 | 
CTA A58T | 3.46 | 0.26 | 
AAG T8C | 5.2 | 0.11 | 
GAA G15C A20T T53A | 2.79 | 0.4 | 
AAA C55T | -0.555 | 0.44 | 
TGA A58G | 8.13 | 0.99 | 
GGA T19C | 0.916 | 0.85 | 0.65
GAG G17T G18T | 1.67 | 0.2 | 

Reformatted comma-delimited: entries from further up
Variant,tRNA Pol-III promoter activity (log2) [1],tRNA 3' processing efficiency [2],tRNA 5' processing efficiency [3]
GTA G9A,1.71,0.17,0.2
TTA A20G,3.43,0.24,
GGA G15C T19A,6.06,0.27,
GAA A14C G18A C55T,3.71,0.17,

The results go on.

Variant | tRNA Pol-III promoter activity (log2) [1] | tRNA 3' processing efficiency [2] | tRNA 5' processing efficiency [3]
GAT A58G T59C | 5.1 | 0.17 | 
CAA C55A T59A | 3.52 | 0.53 | 
ATA G15A | 2.72 | 0.17 | 
CAA A14T T59C | 0.758 | 0.5 | 
AAA T54A | 0.397 | 0.17 | 
GCC | 2.58 | 0.09 | 0.33
GGA G15A T19G | 7.08 | 0.89 | 
GGT G9A T53A | 6.25 | 0.2 | 
GTA G17T T19G | 4.32 | 0.77 | 
GAA G9A A14G | -0.865 | 0.25 | 
GCC G15C T19A | 6.75 | 0.14 | 
GAC T19A A58T | 4.49 | 0.41 | 
GTC G9A | 6.84 | 0.14 | 
GAA G15T T59G | 0.51 | 0.4 | 
GCA G9T A14C | 2.12 | 0.25 | 
GAA T8G T53C | 0.334 | 0.2 | 
GAA T8C G9A A20T | 5.49 | 0.27 | 
GAT G9A A20T | 3.53 | 0.33 | 
GGA T54A T59C | 5.77 | 0.5 | 
GAA G9T G50A | 7.18 | 0.32 | 
GAG T19A A20T A58T | 4.19 | 0.17 | 

— the supplement of paper PMC6445147
